From patent publication US20100323905A1
Residue numbers refer to the chain shown, from its start. No constants are given. Whether binding was seen depends on the method and setting. Some entries that bind do so weakly or less than the wild type.

Columns and labels:
Assay in all cases: Western blot of purified mutant proteins
[1] = target: T1, PABPN1 point mutant V143A (UniProt Q86U42)
T1 sequence (looked up): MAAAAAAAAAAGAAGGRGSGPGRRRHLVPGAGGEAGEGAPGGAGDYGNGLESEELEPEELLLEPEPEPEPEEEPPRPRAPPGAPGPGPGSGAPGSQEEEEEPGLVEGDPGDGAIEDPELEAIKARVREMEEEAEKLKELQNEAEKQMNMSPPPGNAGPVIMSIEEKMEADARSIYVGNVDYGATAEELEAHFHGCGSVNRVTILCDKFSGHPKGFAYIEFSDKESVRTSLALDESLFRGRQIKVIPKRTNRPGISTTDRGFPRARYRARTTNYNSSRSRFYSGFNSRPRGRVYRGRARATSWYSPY

[2] = target: T2, PABPN1 point mutant L136S (UniProt Q86U42)
T2 sequence (looked up): T1 sequence (looked up) with L136S, A143V

[3] = target: T3, PABPN1 point mutant E131A (UniProt Q86U42)
T3 sequence (looked up): T1 sequence (looked up) with E131A, A143V

[4] = target: T4, PABPN1 point mutant K135A (UniProt Q86U42)
T4 sequence (looked up): T1 sequence (looked up) with K135A, A143V

binding [1]: binds | binding [2]: binds | binding [3]: binds | binding [4]: binds
B1: VHH 3F5 (VHH)
VHH: EVQLVESGGGLVQAGGSLRLSCAASGRTFSGYGMGWFRQAPGKEREFVAAISWRGGNTYYADSVKGRFTISRDNAKNTVWLQMNSLKPEDTAVYYCSGFVRTRDDPSRIRNYWGQGTQVTVST
